Measured data: PubChem BioAssay AID652272 (Drosophila RNAi Screening Center, 2013)
In all, the deposit lists about 21,000 reagents; this is an unselected part of those with a known target gene and a result. Over the whole deposit, 503 (2.4%) were called active. 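Raw plate light values, not normalised; calls rest on replicate z-scores that were not deposited; hits include reporter decreases as well as increases.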 Unmarked entries are inactive. Reagents against one gene are numbered here. A plus sign joins genes that one reagent is predicted to hit. Not stated in the record: the amount of reagent, the time to read-out.

- Test: 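Genome-wide knock-down search for components of Hedgehog signalling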 (primary screen)
- Cell system: Drosophila clone 8 (Cl8) cells
- Knock-down reagent: long dsRNA against Drosophila genes
- Measured: 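Plate reader light from a firefly reporter under a ptc promoter fragment that responds to Hedgehog, with Renilla light as transfection reference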
- Reading the numbers: firefly Hh reporter signal: higher = more ptc reporter light; Renilla reference signal: higher = more Renilla control light
- Hit rule: 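Hit when the z-score averaged over two replicates is under -2 or over +3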
- Meaning of the calls: active = hit: reporter lowered or raised; inactive = not a hit

For EndoU, what was measured?
firefly Hh reporter signal, replicate 1: 82715; firefly Hh reporter signal, replicate 2: 78272; Renilla reference signal, replicate 1: 2459; Renilla reference signal, replicate 2: 2794

For CG12986, what was measured?
firefly Hh reporter signal, replicate 1: 1.30e5; firefly Hh reporter signal, replicate 2: 2.48e5; Renilla reference signal, replicate 1: 4950; Renilla reference signal, replicate 2: 10866

What is on record for CG7906?
firefly Hh reporter signal, replicate 1: 1.27e5; firefly Hh reporter signal, replicate 2: 84624; Renilla reference signal, replicate 1: 4932; Renilla reference signal, replicate 2: 3044

What did the screen give for Tango8?
firefly Hh reporter signal, replicate 1: 63436; firefly Hh reporter signal, replicate 2: 32513; Renilla reference signal, replicate 1: 1665; Renilla reference signal, replicate 2: 2199

For Cpr51A, how do the results read?
firefly Hh reporter signal, replicate 1: 83976; firefly Hh reporter signal, replicate 2: 43621; Renilla reference signal, replicate 1: 2000; Renilla reference signal, replicate 2: 3881

With CG1894, what was measured?
firefly Hh reporter signal, replicate 1: 86659; firefly Hh reporter signal, replicate 2: 1.01e5; Renilla reference signal, replicate 1: 3072; Renilla reference signal, replicate 2: 3844

What is on record for nerfin-1?
firefly Hh reporter signal, replicate 1: 67140; firefly Hh reporter signal, replicate 2: 46100; Renilla reference signal, replicate 1: 2304; Renilla reference signal, replicate 2: 3364

For Acp32CD, what does the deposit list?
firefly Hh reporter signal, replicate 1: 99908; firefly Hh reporter signal, replicate 2: 59443; Renilla reference signal, replicate 1: 2759; Renilla reference signal, replicate 2: 5559

What is on record for Jon99Fii + Jon99Cii + Jon99Ciii + 1 more?
firefly Hh reporter signal, replicate 1: 1.71e5; firefly Hh reporter signal, replicate 2: 1.29e5; Renilla reference signal, replicate 1: 5917; Renilla reference signal, replicate 2: 3779

Which result is listed for CG42319 #1?
firefly Hh reporter signal, replicate 1: 1.11e5; firefly Hh reporter signal, replicate 2: 65952; Renilla reference signal, replicate 1: 2688; Renilla reference signal, replicate 2: 5028

For CG42319 #2, what does the deposit list?
firefly Hh reporter signal, replicate 1: 86485; firefly Hh reporter signal, replicate 2: 47435; Renilla reference signal, replicate 1: 2285; Renilla reference signal, replicate 2: 3904

What did the screen give for CG1090?
firefly Hh reporter signal, replicate 1: 1.58e5; firefly Hh reporter signal, replicate 2: 1.31e5; Renilla reference signal, replicate 1: 6988; Renilla reference signal, replicate 2: 4854

Single entries from the entries so far:
Jon99Fii + Jon99Cii + Jon99Ciii + 1 more, firefly Hh reporter signal, replicate 2 = 1.29e5
Entry for Tango8 under “Renilla reference signal, replicate 1”: 1665
Value of CG42319 #1 in “Renilla reference signal, replicate 1”: 2688

The results go on.
What did the screen give for CG10301?
firefly Hh reporter signal, replicate 1: 4.72e5; firefly Hh reporter signal, replicate 2: 88452; Renilla reference signal, replicate 1: 24560; Renilla reference signal, replicate 2: 2853

Which result is listed for PCID2?
firefly Hh reporter signal, replicate 1: 75500; firefly Hh reporter signal, replicate 2: 58764; Renilla reference signal, replicate 1: 3877; Renilla reference signal, replicate 2: 2790

What did the screen give for Sc2?
firefly Hh reporter signal, replicate 1: 99948; firefly Hh reporter signal, replicate 2: 72752; Renilla reference signal, replicate 1: 4084; Renilla reference signal, replicate 2: 2892

What did the screen give for CG11110?
firefly Hh reporter signal, replicate 1: 75093; firefly Hh reporter signal, replicate 2: 55440; Renilla reference signal, replicate 1: 2871; Renilla reference signal, replicate 2: 4098

For ATP8B #1, how do the results read?
firefly Hh reporter signal, replicate 1: 50560; firefly Hh reporter signal, replicate 2: 2.78e5; Renilla reference signal, replicate 1: 12470; Renilla reference signal, replicate 2: 6683

What did the screen give for ATP8B #2?
firefly Hh reporter signal, replicate 1: 70615; firefly Hh reporter signal, replicate 2: 1.32e5; Renilla reference signal, replicate 1: 1889; Renilla reference signal, replicate 2: 3164

How did the screen score beat-IIa #1?
firefly Hh reporter signal, replicate 1: 90933; firefly Hh reporter signal, replicate 2: 1.28e5; Renilla reference signal, replicate 1: 2692; Renilla reference signal, replicate 2: 3161

With beat-IIa #2, what does the deposit list?
firefly Hh reporter signal, replicate 1: 69035; firefly Hh reporter signal, replicate 2: 81104; Renilla reference signal, replicate 1: 1826; Renilla reference signal, replicate 2: 1904

How did the screen score SmB?
firefly Hh reporter signal, replicate 1: 50108; firefly Hh reporter signal, replicate 2: 48857; Renilla reference signal, replicate 1: 2866; Renilla reference signal, replicate 2: 2435
